PubChem BioAssay AID1259306 – Sanger Institute, 2017
This is an unselected part of 794 reagents tested. 11 of all reagents (1.4%) were called active. 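Calls reflect knock-down alone; synergy scores play no part, so knock-downs synergising with a drug can be called no change.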 Further read-outs or replicates are left out here. Reagent sequences are not shown. Not stated in the record: the amount of reagent, the time to read-out.

- Aim: 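Find kinases whose loss reduces colorectal cancer cell viability or aids targeted drugs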 (primary screen)
- System: human SNU-C5 colorectal cancer cells
- Knock-down reagent: siRNA pool against human genes
- Challenge: DMSO vehicle alone, or one anchor drug: BYL719 at 1 µM, cetuximab at 5 µg/ml or trametinib at 10 nM, given 24 h into the assay
- Measured: 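Replicate-averaged viability against non-targeting pool control, given as fraction and robust z-score; separate synergy scores for BYL719, cetuximab and trametinib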
- Scale: robust z-score, knock-down alone: higher = more viable cells
- Active means: 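Called essential when the robust z-score for knock-down alone is below -3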
- Meaning of the calls: active = essential (knock-down alone); inactive = no change alone

FXR1 (FMR1 autosomal homolog 1) — robust z-score, knock-down alone: 0.266; Outcome: inactive
CAMK2G (calcium/calmodulin dependent protein kinase II gamma) — robust z-score, knock-down alone: -2.78; Outcome: inactive
TNK2 (tyrosine kinase non receptor 2) — robust z-score, knock-down alone: 0.989; Outcome: inactive
MAP3K9 (mitogen-activated protein kinase kinase kinase 9) — robust z-score, knock-down alone: -2.64; Outcome: inactive
MUSK (muscle associated receptor tyrosine kinase) — robust z-score, knock-down alone: -0.394; Outcome: inactive
ULK1 (unc-51 like autophagy activating kinase 1) — robust z-score, knock-down alone: 0.134; Outcome: inactive
CRIM1 (cysteine rich transmembrane BMP regulator 1) — robust z-score, knock-down alone: 0.323; Outcome: inactive
CDK7 (cyclin dependent kinase 7) — robust z-score, knock-down alone: 0.989; Outcome: inactive
ITK (IL2 inducible T cell kinase) — robust z-score, knock-down alone: -0.932; Outcome: inactive
MELK (maternal embryonic leucine zipper kinase) — robust z-score, knock-down alone: 0.435; Outcome: inactive
STK16 (serine/threonine kinase 16) — robust z-score, knock-down alone: -0.17; Outcome: inactive
CHEK2 (checkpoint kinase 2) — robust z-score, knock-down alone: 0.0833; Outcome: inactive
PKN2 (protein kinase N2) — robust z-score, knock-down alone: -0.99; Outcome: inactive
TRPM7 — robust z-score, knock-down alone: -1.59; Outcome: inactive
PRKD2 (protein kinase D2) — robust z-score, knock-down alone: -0.0396; Outcome: inactive
EPHA8 (EPH receptor A8) — robust z-score, knock-down alone: 0.979; Outcome: inactive
EFNB3 (ephrin B3) — robust z-score, knock-down alone: -2.04; Outcome: inactive
EEF2K (eukaryotic elongation factor 2 kinase) — robust z-score, knock-down alone: -3.58; Outcome: active

Copied from the listing for reference:
TNK2 (tyrosine kinase non receptor 2) — robust z-score, knock-down alone: 0.989; Outcome: inactive
MAP3K9 (mitogen-activated protein kinase kinase kinase 9) — robust z-score, knock-down alone: -2.64; Outcome: inactive

The results go on:
CSNK1A1L (casein kinase 1 alpha 1 like) — robust z-score, knock-down alone: 0.989; Outcome: inactive
MAP3K7 (mitogen-activated protein kinase kinase kinase 7) — robust z-score, knock-down alone: -0.296; Outcome: inactive
HUS1 (HUS1 checkpoint clamp component) — robust z-score, knock-down alone: 0.00804; Outcome: inactive
CDKN1B (cyclin dependent kinase inhibitor 1B) — robust z-score, knock-down alone: 0.989; Outcome: inactive
MPP3 (MAGUK p55 scaffold protein 3) — robust z-score, knock-down alone: -1.73; Outcome: inactive
TBK1 (TANK binding kinase 1) — robust z-score, knock-down alone: -0.56; Outcome: inactive
PANK4 (pantothenate kinase 4 (inactive)) — robust z-score, knock-down alone: -1.41; Outcome: inactive
IRAK4 (interleukin 1 receptor associated kinase 4) — robust z-score, knock-down alone: 0.364; Outcome: inactive
CHD4 (chromodomain helicase DNA binding protein 4) — robust z-score, knock-down alone: -0.692; Outcome: inactive
MAPK11 (mitogen-activated protein kinase 11) — robust z-score, knock-down alone: 0.802; Outcome: inactive
